According to paper PMC9646721, “Alkaloid binding to opium poppy major latex proteins triggers structural modification and functional aggregation” (Nature Communications, 2022):

Legend:
[1] = test system: engineered Saccharomyces cerevisiae CEN.PK strain (NISO not included); experiment: Morphinan alkaloid accumulation in opiate-producing yeast strain fed salutaridine; format: cell-based; details: replicates 1-4
PR10-12 [2] = experiment: Isothermal titration calorimetry; format: binding, Papaver somniferum; details: ITC, PBS pH 7.4, 25 °C
Experimental: ITC experiments were conducted using a Microcal VP instrument (Malvern Pananalytical, Malvern, UK). Recombinant MLP/PR10 protein preparation involving production in Escherichia coli followed by cobalt-affinity chromatography was optimized to yield relatively high purity in a single step as determined by SDS-PAGE and colloidal Coomassie blue silver staining. The less than 48 h decrease in atmospheric oxygen exposure generated high-quality proteins with reduced precipitate. […] Eluates were twice dialysed to equilibrium (i.e., 10–12 h at 4 °C) against a 1000-fold (2–4 L) volume of PBS, pH 7.4 (25 mM sodium phosphate, 50 mM NaCl) or CBS, pH 5.5, resulting in a theoretical million-fold dilution of undesired small molecules (e.g., <0.2 µM imidazole). Dialysis was carried out in boiled Spectra/Por 1 6–8 kDa MWCO 0.32 ml/cm (Spectrum Labs, USA) tubing thoroughly washed with either buffer before use. The second 1000-fold volume of dialysis buffer was filtered and degassed using a reusable bottle-top filtration apparatus (Nalgene, USA) with disposable […] cellulose filters (VWR, Canada) prior to storage at 4 °C. Ligands were dissolved in the filtered dialysis buffer at 21 °C for approximately one hour, and any insoluble material was removed by repeated centrifugation at 21,000 × g for 10 min. No change in pH occurred following substrate addition. Prior to ITC, which was initiated immediately following dialysis, the protein solutions were centrifuged at 17,000 × g and 4 °C for 30 min. Any precipitate was separated from the remaining soluble protein fraction which was quantified by absorption at A280nm and diluted with filtered dialysis buffer immediately before use.
Thermograms were recorded at 25 °C, with a reference power of 10 (dpu/sec) and monitoring of 30 injections of 9 µl BIA ligand solutions into a sample cell containing 1.4 ml of an MLP/PR10 protein solution, with 300 seconds between injections. Protein concentrations varied from 10 to 150 µM to achieve an optimal C value and curve shape valid for parameter calculation. […] To ensure that we report only the heat of reaction for each interaction, independent titrations of ligand into buffer, and buffer into protein solutions, were used to calculate and then subtract heats of dilution. After subtraction, binding isotherms were analyzed in MicroCal Origin 7 (MicroCal, USA) by fitting a single-site binding model using non-linear least squares regression analysis repeated until convergence. […] Each ITC experiment was repeated 2 to 4 times.

PR10-4 = experiment: ANS displacement assay; format: binding, Papaver somniferum; details: ANS displacement dose-response fit
Description: (§1) Eluates were store separately on ice.
(§2) Displacement of ANS is associated with reduced fluorescence.

PR10-12 [3] = experiment: ANS displacement assay; format: binding, Papaver somniferum; details: ANS displacement dose-response fit
Description: as §1, §2

MLP2 = experiment: ANS displacement assay; format: binding, Papaver somniferum; details: ANS displacement dose-response fit
Description: as §1, §2

[4] = Sucrose density-gradient fractionation of latex, relative abundance of BIAs in gradient fractions; design: species or system Papaver somniferum

**Q.** Which “Alkaloid accumulation in yeast” value ([1]; 2 h salutaridine feeding, EV strain) does the source give for `COc1ccc2c3c1O[C@H]1[C@@H](O)C=C[C@H]4[C@@H](C2)N(C)CC[C@@]341` [Codeine, codeine] here?
**A.** Its value is 0 ug/ul/OD.

**Q.** What about the “Alkaloid accumulation in yeast” value ([1]; 2 h salutaridine feeding, MLP2 strain) of the same compound?
**A.** The value was 0 ug/ul/OD.

**Q.** And the “Alkaloid accumulation in yeast” value ([1]; 2 h salutaridine feeding, MLP15 strain)?
**A.** Its value is 0 ug/ul/OD.

**Q.** What about the “Alkaloid accumulation in yeast” value ([1]; 2 h salutaridine feeding, NISO strain) of the same compound?
**A.** The value was 107.675 ug/ul/OD and 157.001 ug/ul/OD and 148.548 ug/ul/OD and 122.82 ug/ul/OD.

**Q.** And the “Alkaloid accumulation in yeast” value ([1]; 2 h salutaridine feeding, PR10-4 strain)?
**A.** Its value is 0 ug/ul/OD.

**Q.** And the “Alkaloid accumulation in yeast” value ([1]; 2 h salutaridine feeding, PR10-10 strain)?
**A.** Its value is 0 ug/ul/OD.

**Q.** What about the “Alkaloid accumulation in yeast” value ([1]; 2 h salutaridine feeding, PR10-12 strain) of the same compound?
**A.** Its value is 0 ug/ul/OD.

**Q.** And the “Alkaloid accumulation in yeast” value ([1]; 6 h salutaridine feeding, EV strain)?
**A.** The value was 32.3254 ug/ul/OD and 28.0153 ug/ul/OD and 39.3344 ug/ul/OD and 0 ug/ul/OD.

**Q.** And the “Alkaloid accumulation in yeast” value ([1]; 6 h salutaridine feeding, MLP2 strain)?
**A.** Its value is 39.2619 ug/ul/OD and 30.1101 ug/ul/OD and 39.1599 ug/ul/OD and 45.9074 ug/ul/OD.

**Q.** And the “Alkaloid accumulation in yeast” value ([1]; 6 h salutaridine feeding, MLP15 strain)?
**A.** Its value is 42.4173 ug/ul/OD and 11.4693 ug/ul/OD and 27.9874 ug/ul/OD and 37.7122 ug/ul/OD.

**Q.** And the “Alkaloid accumulation in yeast” value ([1]; 6 h salutaridine feeding, NISO strain)?
**A.** The value was 377.624 ug/ul/OD and 475.323 ug/ul/OD and 383.561 ug/ul/OD and 380.034 ug/ul/OD.

**Q.** And the “Alkaloid accumulation in yeast” value ([1]; 6 h salutaridine feeding, PR10-4 strain)?
**A.** The value was 34.936 ug/ul/OD and 44.6481 ug/ul/OD and 35.9219 ug/ul/OD and 33.4971 ug/ul/OD.

**Q.** And the “Alkaloid accumulation in yeast” value ([1]; 6 h salutaridine feeding, PR10-10 strain)?
**A.** The value was 34.3086 ug/ul/OD and 44.5164 ug/ul/OD and 37.3049 ug/ul/OD and 39.3297 ug/ul/OD.

**Q.** And the “Alkaloid accumulation in yeast” value ([1]; 6 h salutaridine feeding, PR10-12 strain)?
**A.** Its value is 30.1443 ug/ul/OD and 6.921 ug/ul/OD and 32.3611 ug/ul/OD and 0 ug/ul/OD.

**Q.** And the ΔH (PR10-12 [2])?
**A.** Its ΔH is 6263 ± 582.6 cal/mol.

**Q.** What about the ΔS (PR10-12 [2]) of the same compound?
**A.** The ΔS was 38.6 cal/mol/˚K.

**Q.** And the N (PR10-12 [2]; single-site model)?
**A.** The N was 0.938 ± 0.0615.

**Q.** What about the “Hill Slope” value (PR10-4) of the same compound?
**A.** The value was -0.59 ± 0.42.

**Q.** What about the “Hill Slope” value (PR10-12 [3]) of the same compound?
**A.** Its value is -1.38 ± 0.58.

**Q.** What about the “Hill Slope” value (MLP2) of the same compound?
**A.** The value was -0.81 ± 0.16.

**Q.** What about the “Alkaloid concentration in sucrose density-gradient fraction” value ([4]; Cultivar 40, fraction 1) of the same compound?
**A.** Its value is 0.365 mM.

**Q.** And the “Alkaloid concentration in sucrose density-gradient fraction” value ([4]; Cultivar 40, fraction 2)?
**A.** The value was 0.265 mM.

**Q.** And the “Alkaloid concentration in sucrose density-gradient fraction” value ([4]; Cultivar 40, fraction 3)?
**A.** The value was 0.090 mM.

**Q.** What about the “Alkaloid concentration in sucrose density-gradient fraction” value ([4]; Cultivar 40, fraction 4) of the same compound?
**A.** The value was 0.043 mM.

**Q.** What about the “Alkaloid concentration in sucrose density-gradient fraction” value ([4]; Cultivar 40, fraction 5) of the same compound?
**A.** The value was 0.026 mM.

**Q.** What about the “Alkaloid concentration in sucrose density-gradient fraction” value ([4]; Cultivar 40, fraction 6) of the same compound?
**A.** Its value is 0.017 mM.

**Q.** What about the “Alkaloid concentration in sucrose density-gradient fraction” value ([4]; Cultivar 40, fraction 7) of the same compound?
**A.** The value was 0.013 mM.

**Q.** And the “Alkaloid concentration in sucrose density-gradient fraction” value ([4]; Cultivar 40, fraction 8)?
**A.** The value was 0.013 mM.

**Q.** What about the “Alkaloid concentration in sucrose density-gradient fraction” value ([4]; Cultivar 40, fraction 9) of the same compound?
**A.** The value was 0.015 mM.

**Q.** What about the “Alkaloid concentration in sucrose density-gradient fraction” value ([4]; Cultivar 40, fraction 10) of the same compound?
**A.** Its value is 0.015 mM.

**Q.** What about the “Alkaloid concentration in sucrose density-gradient fraction” value ([4]; Cultivar 40, fraction 11) of the same compound?
**A.** The value was 0.017 mM.

**Q.** What about the “Alkaloid concentration in sucrose density-gradient fraction” value ([4]; Cultivar 40, fraction 12) of the same compound?
**A.** Its value is 0.018 mM.

**Q.** And the “Alkaloid concentration in sucrose density-gradient fraction” value ([4]; Cultivar 40, fraction 13)?
**A.** The value was 0.028 mM.

**Q.** What about the “Alkaloid concentration in sucrose density-gradient fraction” value ([4]; Cultivar 40, fraction 14) of the same compound?
**A.** Its value is 0.034 mM.

**Q.** And the “Alkaloid concentration in sucrose density-gradient fraction” value ([4]; Cultivar 40, fraction 15)?
**A.** Its value is 0.032 mM.

**Q.** And the “Alkaloid concentration in sucrose density-gradient fraction” value ([4]; Cultivar 40, fraction 16)?
**A.** The value was 0.035 mM.

**Q.** And the “Alkaloid concentration in sucrose density-gradient fraction” value ([4]; Cultivar 40, fraction 17)?
**A.** Its value is 0.029 mM.

**Q.** And the “Alkaloid concentration in sucrose density-gradient fraction” value ([4]; Cultivar 40, fraction 18)?
**A.** Its value is 0.030 mM.

**Q.** And the “Alkaloid concentration in sucrose density-gradient fraction” value ([4]; Cultivar 40, fraction 19)?
**A.** The value was 0.036 mM.

**Q.** What about the “Alkaloid concentration in sucrose density-gradient fraction” value ([4]; Cultivar 40, fraction 20) of the same compound?
**A.** The value was 0.065 mM.

**Q.** And the “Alkaloid concentration in sucrose density-gradient fraction” value ([4]; Cultivar 40, fraction 21)?
**A.** The value was 0.065 mM.

**Q.** And the “Alkaloid concentration in sucrose density-gradient fraction” value ([4]; Cultivar 40, fraction 22)?
**A.** The value was 0.058 mM.

**Q.** And the “Alkaloid concentration in sucrose density-gradient fraction” value ([4]; Cultivar Roxanne, fraction 1)?
**A.** Its value is 0.182 mM.

**Q.** What about the “Alkaloid concentration in sucrose density-gradient fraction” value ([4]; Cultivar Roxanne, fraction 2) of the same compound?
**A.** The value was 0.081 mM.

**Q.** And the “Alkaloid concentration in sucrose density-gradient fraction” value ([4]; Cultivar Roxanne, fraction 3)?
**A.** Its value is 0.023 mM.

**Q.** What about the “Alkaloid concentration in sucrose density-gradient fraction” value ([4]; Cultivar Roxanne, fraction 4) of the same compound?
**A.** The value was 0.009 mM.

**Q.** And the “Alkaloid concentration in sucrose density-gradient fraction” value ([4]; Cultivar Roxanne, fraction 5)?
**A.** The value was 0.011 mM.

**Q.** What about the “Alkaloid concentration in sucrose density-gradient fraction” value ([4]; Cultivar Roxanne, fraction 6) of the same compound?
**A.** The value was 0.007 mM.

**Q.** And the “Alkaloid concentration in sucrose density-gradient fraction” value ([4]; Cultivar Roxanne, fraction 7)?
**A.** Its value is 0.00548 mM.

**Q.** And the “Alkaloid concentration in sucrose density-gradient fraction” value ([4]; Cultivar Roxanne, fraction 8)?
**A.** Its value is 0.00529 mM.

**Q.** And the “Alkaloid concentration in sucrose density-gradient fraction” value ([4]; Cultivar Roxanne, fraction 9)?
**A.** Its value is 0.00529 mM.

**Q.** What about the “Alkaloid concentration in sucrose density-gradient fraction” value ([4]; Cultivar Roxanne, fraction 10) of the same compound?
**A.** The value was 0.00476 mM.

**Q.** What about the “Alkaloid concentration in sucrose density-gradient fraction” value ([4]; Cultivar Roxanne, fraction 11) of the same compound?
**A.** Its value is 0.005 mM.

**Q.** What about the “Alkaloid concentration in sucrose density-gradient fraction” value ([4]; Cultivar Roxanne, fraction 12) of the same compound?
**A.** Its value is 0.006 mM.

**Q.** What about the “Alkaloid concentration in sucrose density-gradient fraction” value ([4]; Cultivar Roxanne, fraction 13) of the same compound?
**A.** Its value is 0.00653 mM.

**Q.** And the “Alkaloid concentration in sucrose density-gradient fraction” value ([4]; Cultivar Roxanne, fraction 14)?
**A.** The value was 0.011 mM.

**Q.** And the “Alkaloid concentration in sucrose density-gradient fraction” value ([4]; Cultivar Roxanne, fraction 15)?
**A.** Its value is 0.011 mM.

**Q.** And the “Alkaloid concentration in sucrose density-gradient fraction” value ([4]; Cultivar Roxanne, fraction 16)?
**A.** Its value is 0.017 mM.

**Q.** And the “Alkaloid concentration in sucrose density-gradient fraction” value ([4]; Cultivar Roxanne, fraction 17)?
**A.** Its value is 0.017 mM.

**Q.** And the “Alkaloid concentration in sucrose density-gradient fraction” value ([4]; Cultivar Roxanne, fraction 18)?
**A.** Its value is 0.017 mM.

**Q.** And the “Alkaloid concentration in sucrose density-gradient fraction” value ([4]; Cultivar Roxanne, fraction 19)?
**A.** The value was 0.015 mM.

**Q.** And the “Alkaloid concentration in sucrose density-gradient fraction” value ([4]; Cultivar Roxanne, fraction 20)?
**A.** Its value is 0.020 mM.

**Q.** And the “Alkaloid concentration in sucrose density-gradient fraction” value ([4]; Cultivar Roxanne, fraction 21)?
**A.** Its value is 0.011 mM.

**Q.** What about the “Alkaloid concentration in sucrose density-gradient fraction” value ([4]; Cultivar Roxanne, fraction 22) of the same compound?
**A.** The value was 0.026 mM.

Where “and” joins values, the source holds several entries; their conditions need not be identical. Equal values may be shown once.
